Results as given in patent US20190185544A1, “COMPOSITIONS AND METHODS OF MODULATING ABETA PROTEIN” (University of South Florida, priority 2016, published 2019).
These are yes or no findings as the source states them, for the method shown. Binding seen in cells or lysates may run through a third protein. Some binding calls cover weakened binding; strength is not graded here.

Amino acid sequences for entries named in this document (tags omitted). Residues count along the entry.
UniProt P05067, residues 18-770: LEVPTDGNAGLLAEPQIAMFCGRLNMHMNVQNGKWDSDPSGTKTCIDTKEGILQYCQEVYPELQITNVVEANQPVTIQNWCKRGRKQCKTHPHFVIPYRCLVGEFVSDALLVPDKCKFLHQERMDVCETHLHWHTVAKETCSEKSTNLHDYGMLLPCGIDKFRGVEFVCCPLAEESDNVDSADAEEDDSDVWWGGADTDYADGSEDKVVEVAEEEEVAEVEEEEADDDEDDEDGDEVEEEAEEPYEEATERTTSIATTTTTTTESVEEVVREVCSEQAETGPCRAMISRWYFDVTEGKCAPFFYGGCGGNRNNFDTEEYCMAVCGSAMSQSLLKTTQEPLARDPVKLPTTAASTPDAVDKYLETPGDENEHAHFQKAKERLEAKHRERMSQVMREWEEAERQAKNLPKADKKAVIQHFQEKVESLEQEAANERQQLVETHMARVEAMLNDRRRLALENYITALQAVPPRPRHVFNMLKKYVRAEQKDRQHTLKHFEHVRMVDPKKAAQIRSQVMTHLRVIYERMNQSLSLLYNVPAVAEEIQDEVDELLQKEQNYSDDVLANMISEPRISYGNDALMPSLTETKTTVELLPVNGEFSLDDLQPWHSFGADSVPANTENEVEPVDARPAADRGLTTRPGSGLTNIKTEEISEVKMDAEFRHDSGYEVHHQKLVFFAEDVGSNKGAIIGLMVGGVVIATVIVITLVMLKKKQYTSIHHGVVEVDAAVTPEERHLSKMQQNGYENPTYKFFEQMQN

Assays:
[1] = target: APP in brain homogenates of TgAPPwt mice (UniProt P05067); assay: co-IP from brain homogenates, WB
[2] = target: APP in brain homogenates of TgAPPwt mice (UniProt P05067); assay: co-IP from brain homogenates with 6H3B5 or pN-APP, WB with 6E10 and mApoE

binding [1]: binds
binding [2]: binds
B1: endogenous apoE in brain homogenates of TgAPPwt mice (ligand, mouse, UniProt P08226 19-311, looked up)
chain: EGEPEVTDQLEWQSNQPWEQALNRFWDYLRWVQTLSDQVQEELQSSQVTQELTALMEDTMTEVKAYKKELEEQLGPVAEETRARLGKEVQAAQARLGADMEDLRNRLGQYRNEVHTMLGQSTEEIRARLSTHLRKMRKRLMRDAEDLQKRLAVYKAGAREGAERGVSAIRERLGPLVEQGRQRTANLGAGAAQPLRDRAQAFGDRIRGRLEEVGNQARDRLEEVREHMEEVRSKMEEQTQQIRLQAEIFQARLKGWFEPIVEDMHRQWANLMEKIQASVATNPIITPVAQENQ
